Laboratory results from patent US4018753A, “Polypeptides with ACTH-like activities” (Shionogi & Co., Ltd., priority 1974, dated 1977).
Not every detail of the peptide structures is certain; ends, links or a residue may be inferred. Square brackets hold non-standard residues; d marks the D form. Peptide text beside a SMILES is read from it. * marks the point of attachment. Pyrrolidide = C1CCN(*)C1; Aib = CC(C)(N)C(=O)O

Experiments:
[1] = tested on: hypophysectomized rat; test: Adrenal-stimulating activity by intramuscular administration to hypophysectomized rat; format: in vivo; details: relative potency; USP Corticotropin Reference Standard; injected into thigh muscle, blood sample 30 minutes after injection, 11-hydroxycorticosteroids
Protocol: (§1) Assays for adrenal-stimulating activity of the present polypeptides were carried out according to the different methods, comparing with that of native corticotropin (ACTH), [Gly^1 ]-ACTH(1-18)-NH2 [Bull.Chem.Soc.Japan 43 196 (1970)], [Aib^1 ]-ACTH(1-18)-NH2 [ibid., 43, 3873 (1970)], [Aib^1,Lys^17,18 ]-ACTH(1-18)-NH2, Cortrosyn^R (N.V.Organon, Netherland) and Cortrosyn-Z (N.V.Organon, Netherland). The adrenal-stimulating activity by the intravenous administration to hypophysectomized rat was determined in such a manner that a peptide preparation was injected into the femoral vein and a blood sample was collected from the abdominal aorta 30 minutes after the injection. The adrenal-stimulating activity by the intramuscular administration to hypophysectomized rat was also determined, where a peptide preparation was injected into the thigh muscle and a blood sample was collected from the abdominal aorta 30 minutes after injection. Throughout the experiment, the USP Corticotropin Reference Standard was used as a standard and the production of 11-hydroxycorticosteroids was determined by the fluorophotometric method of Peterson [J.Biol. Chem. 225 25 (1957)]. For each assay method several determinations were usually performed and the data obtained independently were submitted to the statistical treatment by Sheps and Moore procedure [J.Pharmacol. Extl. Therap. 128, 99 (1960)].

[2] = tested on: melanocyte; test: In vivo melanocyte-stimulating activity; details: relative potency
Protocol: The in vivo melanocyte-stimulating activity was determined according to the method described in Endocrinol. Japonica 19, 383 (1972).

[3] = tested on: rats; test: Effect on adrenal growth and thymus involution; format: in vivo; details: relative potency; i.m. 20 μg and 100 μg/rat/day for 2 days, autopsy 24 hours after last injection, adrenal and thymus weighed
Protocol: The effect on adrenal growth and thymus involution was determined in the following manner: peptides were intramuscularly injected into rats at a dose of 20 μg and 100 μg/rat/day respectively for 2 days. The rats were then submitted to autopsy 24 hours after the last injection, and then the adrenal and thymus were weighed respectively.

[4] = tested on: hypophysectomized rat; test: Adrenal-stimulating activity by intravenous administration to hypophysectomized rat; format: in vivo; details: relative potency; USP Corticotropin Reference Standard; injected into femoral vein, blood sample 30 minutes after injection, 11-hydroxycorticosteroids
Protocol: as §1

## CSCC[C@H](NC(=O)[C@H](CO)NC(=O)[C@H](Cc1ccc(O)cc1)NC(=O)C(C)(C)N)C(=O)N[C@@H](CCC(=O)O)C(=O)N[C@@H](Cc1c[nH]cn1)C(=O)N[C@@H](Cc1ccccc1)C(=O)N[C@@H](CCCNC(=N)N)C(=O)N[C@@H](Cc1c[nH]c2ccccc12)C(=O)NCC(=O)N[C@@H](CCCCN)C(=O)N1CCC[C@H]1C(=O)N[C@H](C(=O)NCC(=O)N[C@@H](CCCCN)C(=O)N[C@@H](CCCCN)C(=O)N[C@@H](CCCCN)C(=O)N[C@@H](CCCCN)C(=O)N(C)C)C(C)C (H-[Aib]YSMEHFRWGKPVGKKKK-NMe2)
[1]
  Adrenal-stimulating activity i.m.: 11.1
[2]
  Melanocyte-stimulating activity b) in vivo: 0.11
[3]
  effect on adrenal growth and thymus involution a): 0.30
[4]
  Adrenal-stimulating activity i.v.: 8.5

## CSCC[C@H](NC(=O)[C@H](CO)NC(=O)[C@H](Cc1ccc(O)cc1)NC(=O)C(C)(C)N)C(=O)N[C@@H](CCC(=O)O)C(=O)N[C@@H](Cc1c[nH]cn1)C(=O)N[C@@H](Cc1ccccc1)C(=O)N[C@@H](CCCNC(=N)N)C(=O)N[C@@H](Cc1c[nH]c2ccccc12)C(=O)NCC(=O)N[C@@H](CCCCN)C(=O)N1CCC[C@H]1C(=O)N[C@H](C(=O)NCC(=O)N[C@@H](CCCCN)C(=O)N[C@@H](CCCCN)C(=O)N[C@@H](CCCCN)C(=O)N[C@@H](CCCCN)C(=O)N1CCCC1)C(C)C [Aib-Tyr-Ser-Met-Glu-His-Phe-Arg-Trp-Gly-Lys-Pro-Val-Gly-Lys-Lys-Lys-Lys-N(CH3)2] (H-[Aib]YSMEHFRWGKPVGKKKK-Pyrrolidide)
[1]
  Adrenal-stimulating activity i.m.: 16.5
[2]
  Melanocyte-stimulating activity b) in vivo: 0.25
[3]
  effect on adrenal growth and thymus involution a): 0.41
[4]
  Adrenal-stimulating activity i.v.: 6.8
